Here are results for one molecule from article PMC8433149.

Results are given in words; binding and its absence hold for the method and conditions named. Binding seen in cells or lysates may run through a third protein. These calls come from enrichment with a bait or labelling near it, and not all partners need be listed.

The assay deals with Engulfment and cell motility protein 1 (human (endogenous in MSC)), Q92556. Nature of the assay: co-IP + affinity purification with mass spectrometry; MSC protein extract (HC-MSC and AS-MSC) incubated with an anti-ELMO1 antibody (1:100) or IgG control at 4 °C overnight, protein G agarose beads for another 4 h; immunoprecipitants collected for LC-MS/MS and western blotting. The settings on record: remark: other sources report otherwise. (In general: Immunoblotting shows a protein as a band on a membrane.)

B1: ELMO2, Q96JJ3 1-720 (protein)
chain: MPPPSDIVKVAIEWPGANAQLLEIDQKRPLASIIKEVCDGWSLPNPEYYTLRYADGPQLYITEQTRSDIKNGTILQLAISPSRAARQLMERTQSSNMETRLDAMKELAKLSADVTFATEFINMDGIIVLTRLVESGTKLLSHYSEMLAFTLTAFLELMDHGIVSWDMVSITFIKQIAGYVSQPMVDVSILQRSLAILESMVLNSQSLYQKIAEEITVGQLISHLQVSNQEIQTYAIALINALFLKAPEDKRQDMANAFAQKHLRSIILNHVIRGNRPIKTEMAHQLYVLQVLTFNLLEERMMTKMDPNDQAQRDIIFELRRIAFDAESDPSNAPGSGTEKRKAMYTKDYKMLGFTNHINPAMDFTQTPPGMLALDNMLYLAKVHQDTYIRIVLENSSREDKHECPFGRSAIELTKMLCEILQVGELPNEGRNDYHPMFFTHDRAFEELFGICIQLLNKTWKEMRATAEDFNKVMQVVREQITRALPSKPNSLDQFKSKLRSLSYSEILRLRQSERMSQDDFQSPPIVELREKIQPEILELIKQQRLNRLCEGSSFRKIGNRRRQERFWYCRLALNHKVLHYGDLDDNPQGEVTFESLQEKIPVADIKAIVTGKDCPHMKEKSALKQNKEVLELAFSILYDPDETLNFIAPNKYEYCIWIDGLSALLGKDMSSELTKSDLDTLLSMEMKLRLLDLENIQIPEAPPPIPKEPSSYDFVYHYG
Consider B1, for which the binding result is “binds”.
